Results deposited as PubChem BioAssay AID1053208 (Peter MacCallum Cancer Centre, 2014).
Test: 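Genes whose silencing cuts survival of bone tumour cells only with doxorubicin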 (primary screen). Cells: mouse osteosarcoma cells, early-passage culture from an engineered mouse model of fibroblastic bone tumour. Knock-down reagent: siRNA pool against mouse genes, 40 nM. Duration: about 120 h (48 h before drug, then 72 h with drug). Challenge: doxorubicin 100 nM for 72 h, roughly 30-40% inhibitory dose. Detection: 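Viability read as ATP luminescence after 72 h of 100 nM doxorubicin or none, duplicate wells averaged, scaled to non-targeting siRNA, then expressed as robust z-scores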. Reading the numbers: viability z-score with doxorubicin and doxorubicin viability vs non-targeting: higher = more viable cells under doxorubicin; viability z-score without drug: higher = more viable cells with knock-down alone; z-score of drug to no-drug ratio: higher = less drug sensitisation by knock-down. Hit rule: 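a pool counts as active when its viability z-score with doxorubicin is -2 or below and its z-score without drug lies between -2 and 2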.
The whole screen tested about 17,000 reagents; this is a part drawn at random. 788 of all reagents (4.7%) count as active. 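Calls rest on z-score classes alone; an extra cut-off of viability at most 70% of control was not applied to them.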 No sequences are given here.

| gene | combined z-score class | viability z-score with doxorubicin | viability z-score without drug | z-score of drug to no-drug ratio | doxorubicin viability vs non-targeting | outcome |
| --- | --- | --- | --- | --- | --- | --- |
| Ube4a (GeneID 140630) | no change with or without drug | 0.67 | -0.17 | 0.9 | 1 | inactive |
| Glrb (GeneID 14658) | no change with or without drug | 1.57 | 1.52 | 0.67 | 1.08 | inactive |
| Slc34a1 (GeneID 20505) | no change with or without drug | 0.22 | -1.52 | 1.57 | 0.96 | inactive |
| Esrrb (GeneID 26380) | no change with or without drug | 1.24 | 1.52 | 0.34 | 1.05 | inactive |
| Dnal4 (GeneID 54152) | no change with or without drug | -0.67 | 0.34 | -0.79 | 0.88 | inactive |
| Samt3 (GeneID 73495) | no change with or without drug | -1.12 | 1.52 | -1.91 | 0.84 | inactive |
| Cyp8b1 (GeneID 13124) | no change with or without drug | -0.45 | -0.17 | -0.22 | 0.9 | inactive |
| Invs (GeneID 16348) | no change with or without drug | -1.35 | -1.18 | -0.56 | 0.82 | inactive |
| Prokr1 (GeneID 58182) | no change with or without drug | 1.35 | -0.17 | 1.69 | 1.06 | inactive |
| Nfasc (GeneID 269116) | no change with or without drug | 1.01 | 0.84 | 0.56 | 1.03 | inactive |
| Ndc80 (GeneID 67052) | no change with or without drug | 0.56 | 0.51 | 0.34 | 0.99 | inactive |
| Dmtf1l (GeneID 237029) | no change with or without drug | -0.9 | 0.84 | -1.35 | 0.86 | inactive |
| Dio3 (GeneID 107585) | no change with or without drug | 0.9 | -0.17 | 1.24 | 1.02 | inactive |
| Yap1 (GeneID 22601) | no change with or without drug | -1.01 | -1.85 | 0.34 | 0.85 | inactive |
| Nfe2 (GeneID 18022) | no change with or without drug | 0.67 | 1.52 | -0.22 | 1 | inactive |
| Cd300ld3 (GeneID 382551) | no change with or without drug | -0.11 | -0.17 | 0.11 | 0.93 | inactive |
| Nr2e1 (GeneID 21907) | no change with or without drug | 0.9 | 1.85 | -0.22 | 1.02 | inactive |
| Pax3 (GeneID 18505) | no change with or without drug | 0.11 | -0.17 | 0.34 | 0.95 | inactive |
| Serpinb13 (GeneID 241196) | no change with or without drug | 0.9 | 1.69 | -0.11 | 1.02 | inactive |
| Smap1 (GeneID 98366) | no change with or without drug | -0.67 | -0.51 | -0.22 | 0.88 | inactive |
| Sowahb (GeneID 78088) | no change with or without drug | 0.45 | 1.69 | -0.56 | 0.98 | inactive |
| Mettl25 (GeneID 216292) | no change with or without drug | 0.11 | 0.17 | 0.11 | 0.95 | inactive |
| Abca8a (GeneID 217258) | no change with or without drug | 0.45 | 0.51 | 0.22 | 0.98 | inactive |
| Nipal2 (GeneID 223473) | no change with or without drug | -0.9 | 0 | -0.79 | 0.86 | inactive |
| Fubp1 (GeneID 51886) | no change with or without drug | -1.35 | 0 | -1.35 | 0.82 | inactive |
| Gtsf2 (GeneID 223927) | no change with or without drug | 0 | -0.84 | 0.67 | 0.94 | inactive |
| Ttc33 (GeneID 67515) | no change with or without drug | 0.22 | -0.51 | 0.67 | 0.96 | inactive |
| Supt16 (GeneID 114741) | low cell count with doxorubicin only | -3.37 | -1.69 | -2.59 | 0.64 | active |
| Prss59 (GeneID 73481) | no change with or without drug | -0.9 | 1.85 | -1.91 | 0.86 | inactive |
| Bloc1s1 (GeneID 14533) | no change with or without drug | 0.9 | -0.34 | 1.35 | 1.02 | inactive |
| Pam16 (GeneID 66449) | no change with or without drug | -1.57 | -1.52 | -0.56 | 0.8 | inactive |
| Ptprv (GeneID 13924) | no change with or without drug | -1.12 | 0.17 | -1.12 | 0.84 | inactive |
| Slc16a4 (GeneID 229699) | low cell count without drug only | -0.67 | -2.19 | 1.01 | 0.88 | inactive |
| Pcdha7 (GeneID 12939) | no change with or without drug | -1.12 | -0.17 | -1.01 | 0.84 | inactive |
| Zfp830 (GeneID 66983) | no change with or without drug | 1.69 | 1.01 | 1.12 | 1.09 | inactive |
| Cspg4 (GeneID 121021) | no change with or without drug | -0.9 | 0.34 | -1.01 | 0.86 | inactive |
| Hamp2 (GeneID 66438) | no change with or without drug | 1.57 | 0.17 | 1.69 | 1.08 | inactive |
| Or10g7 (GeneID 259109) | low cell count with doxorubicin only | -2.02 | -0.67 | -1.57 | 0.76 | active |
| Mrps22 (GeneID 64655) | no change with or without drug | -1.46 | -1.18 | -0.67 | 0.81 | inactive |
| Ubb (GeneID 22187) | no change with or without drug | -1.57 | -1.52 | -0.56 | 0.8 | inactive |
| Skap1 (GeneID 78473) | no change with or without drug | 0.56 | -0.17 | 0.79 | 0.99 | inactive |

Just “viability z-score without drug” (9 entries from above):
Samt3 (GeneID 73495) = 1.52
Cyp8b1 (GeneID 13124) = -0.17
Invs (GeneID 16348) = -1.18
Prokr1 (GeneID 58182) = -0.17
Nfasc (GeneID 269116) = 0.84
Ndc80 (GeneID 67052) = 0.51
Dmtf1l (GeneID 237029) = 0.84
Dio3 (GeneID 107585) = -0.17
Yap1 (GeneID 22601) = -1.85

Continued:
| gene | combined z-score class | viability z-score with doxorubicin | viability z-score without drug | z-score of drug to no-drug ratio | doxorubicin viability vs non-targeting | outcome |
| --- | --- | --- | --- | --- | --- | --- |
| Get4 (GeneID 67604) | no change with or without drug | -1.46 | -1.35 | -0.56 | 0.81 | inactive |
| Atp5f1d (GeneID 66043) | low cell count with doxorubicin only | -2.02 | 0.84 | -2.47 | 0.76 | active |
| Lst1 (GeneID 16988) | no change with or without drug | -1.35 | -1.18 | -0.56 | 0.82 | inactive |
| Pomc (GeneID 18976) | high cell count with doxorubicin only | 2.02 | 0.84 | 1.57 | 1.12 | inactive |
| Rnf6 (GeneID 74132) | no change with or without drug | -1.24 | -1.52 | -0.11 | 0.83 | inactive |
| Or1e32 (GeneID 259008) | no change with or without drug | -0.11 | 1.18 | -0.79 | 0.93 | inactive |
| Clstn3 (GeneID 232370) | no change with or without drug | 0 | 0.51 | -0.22 | 0.94 | inactive |
| Akp3 (GeneID 11648) | no change with or without drug | -0.11 | 1.35 | -0.9 | 0.93 | inactive |
| Sox6 (GeneID 20679) | no change with or without drug | 0.34 | -0.51 | 0.79 | 0.97 | inactive |
| Zbtb18 (GeneID 30928) | no change with or without drug | 0.34 | 0.84 | -0.11 | 0.97 | inactive |
| Neurod2 (GeneID 18013) | no change with or without drug | 0.22 | 0.34 | 0.11 | 0.96 | inactive |
| Senp2 (GeneID 75826) | low cell count with doxorubicin only | -2.02 | -1.52 | -1.12 | 0.76 | active |
| Slc25a32 (GeneID 69906) | no change with or without drug | -0.56 | -0.84 | 0.11 | 0.89 | inactive |
| Cd80 (GeneID 12519) | no change with or without drug | 0.67 | -0.17 | 0.9 | 1 | inactive |
| Ttbk1 (GeneID 106763) | no change with or without drug | 1.35 | 0.17 | 1.35 | 1.06 | inactive |
| Ctxn1 (GeneID 330695) | no change with or without drug | -0.56 | 1.01 | -1.12 | 0.89 | inactive |
| Coasy (GeneID 71743) | no change with or without drug | -1.12 | -0.51 | -0.79 | 0.84 | inactive |
| Gabrr2 (GeneID 14409) | no change with or without drug | 0.45 | 0.17 | 0.45 | 0.98 | inactive |
| Lce1m (GeneID 66203) | no change with or without drug | 1.8 | -0.34 | 2.25 | 1.1 | inactive |
| Tktl1 (GeneID 83553) | no change with or without drug | -0.22 | 0.84 | -0.67 | 0.92 | inactive |
| Cavin4 (GeneID 68016) | high cell count without drug only | 1.35 | 2.53 | -0.22 | 1.06 | inactive |
| Fundc2 (GeneID 67391) | no change with or without drug | 0.56 | 1.01 | 0 | 0.99 | inactive |
